# The supplement of paper PMC3334620
# Over roughly 33,000 sequences, “E-score (-0.5 to 0.5)” has its median near -8e-05; the highest 2% begin near 0.23. The list shows a part of the results.
# Target: T1, Nrg2 (UniProt P38082)
# T1 sequence: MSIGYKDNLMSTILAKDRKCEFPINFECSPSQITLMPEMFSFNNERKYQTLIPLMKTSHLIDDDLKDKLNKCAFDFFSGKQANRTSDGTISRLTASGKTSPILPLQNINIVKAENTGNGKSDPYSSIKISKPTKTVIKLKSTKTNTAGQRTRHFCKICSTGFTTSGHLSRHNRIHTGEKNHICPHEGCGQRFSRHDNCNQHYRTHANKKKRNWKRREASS
# Assay: PBM E-score (8-mer binding enrichment) (E-score (-0.5 to 0.5)); higher = stronger / more preferred TF binding
# Conditions: protein concentration: 100 nM; construct: GST-full length
# Description: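 Universal 'all 10-mer' protein binding microarrays (Agilent AMADID 015681) probed with GST-tagged S. cerevisiae TFs (full-length or DBD) made by in vitro transcription/translation (PURExpress), about 100-200 nM. Bound TF was detected with fluorescent anti-GST. Each ungapped 8-mer (which stands for itself and its reverse complement) is scored by the PBM enrichment score (E-score), a modified Wilcoxon-Mann-Whitney statistic from -0.5 to +0.5, computed with the Universal PBM Analysis Suite. Scale: above 0.35 generally sequence-specific binding.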
row,Sequence,PBM E-score
1,AAGGAACC,0.109
2,ATTTGAGA,0.168
3,ACGGCGTA,-0.107
4,GTGTTCTA,0.207
5,AGCAAGCT,-0.229
6,AGAAGTGC,-0.102
7,AATCAACC,0.0205
8,AACCTCGA,0.0566
9,CTAAGAGC,-0.185
10,AAGCCGAC,-0.0607
11,AGGCCCAC,-0.222
12,AACTTGGA,0.0634
13,ACTTCCGA,0.103
14,CCACCTCC,-0.221
15,ACCGTCAA,-0.0323
16,GAATACGC,0.0823
17,CGTTCAGC,0.00064
18,AACCGCGA,0.256
19,AGGGCGAC,-0.0529
20,GGGATGAC,-0.00204
21,CCAGCTGG,-0.0144
22,TCACCGCA,0.0871
23,GAACATAA,0.201
24,CGTCATAG,-0.0955
25,CGGCCTGC,-0.225

row,Sequence,PBM E-score
1,TCGGGTAA,-0.00616
2,GGCGGCAA,-0.0691
3,ATGGCCGA,0.0712
4,GCCTAAAC,-0.114
5,GCGGAGAC,0.104
6,AGCGCGTG,0.00458
7,AGTAGTGC,0.104
8,GTGTCTGA,0.058
9,GCAACATA,0.0428
10,AGTGGCGA,0.151
11,CGGAAGCC,-0.0402
12,GTGTCCTA,-0.0476
13,GCGAAGAA,0.0522
14,ATTCCACG,0.0249
15,TGACACCA,-0.0771
16,AAAGACAT,-0.0374
17,TACAAATA,0.0774
18,ATACGTCG,0.00829
19,CGACCATA,-0.0241
20,AGCCCGCT,-0.338
21,AGACTGAG,-0.0772
22,GGTATTAA,0.0523
23,AGGGGCAT,0.00378
24,AAAGTTAC,0.0473
25,CATTTGTA,0.123

row,Sequence,PBM E-score
1,CGGACCAC,-0.052
2,CGAACTAA,0.162
3,ACGGACTG,-0.104
4,CGCCTGCA,0.00663
5,GGAAATCC,-0.0565
6,GACGACGA,-0.0275
7,AAAAACCA,0.112
8,CATGTGAG,-0.131
9,GCGATAAC,-0.0744
10,CCGTATGC,0.0663
11,AACCTAAG,0.0645
12,CAGAAGGA,-0.204
13,GTCCATGA,-0.237
14,GCGCGACC,0.109
15,AACAGATG,-0.0815
16,TTCTTAAA,-0.21
17,CAGTTAAA,-0.0432
18,AGCCCTCG,-0.0772
19,TACCTAGA,-0.116
20,AAACAAAA,0.0254
21,CCCGCAAA,0.188
22,ACAAAAAA,0.206
23,AACTAGGG,0.122
24,CTCGCCTA,0.162
25,CACTGTCA,0.101

row,Sequence,PBM E-score
1,CGCGAGAA,0.00518
2,CAGGAAAA,0.205
3,ATCTCATC,0.0993
4,AGCCTCAT,-0.198
5,AAGGACTT,-0.301
6,CATGGTTA,0.0738
7,AAACTCTC,0.0414
8,CGAACCCA,-0.0033
9,AGTGTGAG,-0.0773
10,CTGTACGA,0.11
11,CGCCACCG,-0.0906
12,CAAATCCA,0.106
13,GTTTAGGA,-0.334
14,ATTGGCGA,0.0484
15,CTTGGATA,0.0205
16,ACCAGTAG,-0.179
17,AAGGGTCT,0.273
18,AATCACCT,0.0282
19,AGAGCGGA,0.0179
20,AGGACGTC,-0.169
21,AGCAGAGC,-0.15
22,AGCATCTC,0.026
23,CCTCTAAA,-0.139
24,ATAAAGGG,0.0152
25,GCCTTGCA,0.0107

row,Sequence,PBM E-score
1,ACAATGCC,0.0263
2,GCACAAAA,0.207
3,GACTGTAC,-0.0625
4,GTCCCTAA,0.106
5,CTCGCAAA,-0.0853
6,CACCATCG,-0.222
7,ACCCTCTC,-0.0636
8,ACGGTCAA,0.00512
9,CCGATTCG,0.207
10,CCTGGGAA,0.147
11,ATAACCCG,-0.178
12,CATTACGA,-0.1
13,AACGATAA,-0.098
14,AAAGGATC,-0.0716
15,CGTCATCC,0.0132
16,CCTGATCA,-0.0406
17,AAAGATAT,0.177
18,ACCTAATC,0.179
19,TCGCAGCA,-0.0431
20,CACGCCCG,-0.0347
21,CCAGATTC,-0.193
22,ATGTGGAG,-0.0678
23,GAATGCCC,0.00027
24,GAAACATC,-0.181
25,ATTGCGCG,0.134

row,Sequence,PBM E-score
1,ATCATTTA,0.0968
2,GGAAGCAA,-0.0162
3,GACACGGC,-0.00358
4,CATAAGGC,0.0272
5,AATACAGT,0.0623
6,GACCTGCA,-0.164
7,ACATACAA,0.0716
8,AAAGGGTT,0.0608
9,CGAACGTC,-0.236
10,AAGTTTAA,-0.201
11,CTCACGTA,-0.0962
12,CCCCAGCG,-0.114
13,CACTCGGG,-0.0309
14,TACCCCAA,0.247
15,AAACCCTG,0.318
16,CATACAAA,0.146
17,AACGAGAC,-0.0169
18,AAAATTAG,0.137
19,AGGTGCTG,-0.104
20,CGACAATA,0.235
21,AGATTGCC,0.0069
22,CATCCGTC,0.0784
23,GTGATACA,0.103
24,TCGCATAA,0.0669
25,ATTAGCCC,-0.0455

row,Sequence,PBM E-score
1,ATGCCTGA,-0.126
2,GTCCTTCA,0.0475
3,CTCCCAAG,-0.127
4,ACGACCGG,-0.144
5,AAACTGAA,-0.00473
6,ATTATGTG,0.182
7,AAGGGTTC,0.248
8,ACTTATTG,0.0252
9,ACTTCGCC,0.226
10,ATGTCGTC,0.00888
11,CCACGATA,0.0908
12,CCTTTACA,-0.126
13,GGGCCTAA,-0.0972
14,AAGGATAC,-0.00642
15,CGAGTTCA,0.0337
16,ACCTCGTG,0.0762
17,CTCTAATA,0.0885
18,AACAGCCA,0.0911
19,AATGACCT,-0.126
20,ATTGGAAC,0.0256
21,CTCTGTTA,-0.052
22,CCATGGAA,0.0473

# Taken from above:
# Under PBM E-score, CTCGCCTA is listed with 0.162
# Under PBM E-score, AACTTGGA is listed with 0.0634
# Under PBM E-score, GTCCTTCA is listed with 0.0475
# Under PBM E-score, AGCCCGCT is listed with -0.338
